# From PubChem BioAssay AID1458 (National Center for Advancing Translational Sciences (NCATS), 2008)
# Among all 210,000 compounds or so, about 5,900 (2.8%) were called active. Roughly 5% stayed inconclusive and do not appear here. Calls follow the shape of the dose curve; as a rule, active = well fitted activation curve with a large enough effect; inconclusive = small, poorly fitted or top-dose-only effect; inactive = no such curve, though single readings can be large or run the other way. The entries are a selection whose mix differs from that of the whole data set. Where no call is shown, the source filed none.
# Assay: qHTS Assay for Enhancers of SMN2 Splice Variant Expression; also: nearly all actives have a fitted effect of over 55% in size; as to activity change, positive = activation: % of control where 0% means no effect
# Details: HEK293 SMN2-luciferase splicing reporter, luminescence, 30-36 h; activity change, positive = activation: at 46.1 µM (top of the series) unless noted
# Procedure, shortened: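 HEK293 cells carry an SMN2 […]–luciferase reporter in which exon 7 inclusion puts luciferase in frame. Cells were plated 10-12 h before compound addition, then incubated 30-36 h at 37C. ONE-Glo luminescence was read; sodium butyrate at 4.5 mM final served as control.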
# Potency is read from the fitted curve at half-maximal effect.
SMILES,"activity change, positive = activation",Potency
CCC(=O)N1CCc2cc(Br)cc(S(=O)(=O)CCC(=O)NCCc3ccc(OC)c(OC)c3)c21,37.7%,
CCn1c(COc2ccccc2C)nnc1SCC(=O)Nc1ccc2c(c1)OCCO2,27.2%,
O=C(COc1ccccc1)Nc1ccccc1NS(=O)(=O)c1cccs1,3.89%,
COc1ccccc1N1CCN(C(=O)c2oc3cc(C)c(C)cc3c2C)CC1,-22.4%,
O=c1[nH]c(C2CCCN(S(=O)(=O)c3ccc(F)cc3)C2)nc2c1nnn2Cc1ccccc1 (centres undefined),30.2%,
CC(C)(C)c1ccc(NC(=O)COC(=O)C2(C)CC2(Cl)Cl)cc1 (centres undefined),60.4%,
O=c1nc(NCc2ccco2)sc2ncccc12,34.7%,
NC(=O)CSc1cn(Cc2ccccc2)c2ccccc12,inactive: -34.1%,
COc1cc2c(cc1OC)C(c1ccccc1)N(C(=O)CCl)CC2 (centres undefined),-85.6%,
Cc1ncoc1C(=O)Nc1ncc([N+](=O)[O-])s1,,active: 4.47 µM
COc1ccc([N+](=O)[O-])cc1NCc1ccccc1,,active: 31.6 µM
COC(=O)c1sc(NC(=S)NC(=O)c2ccccc2F)nc1C,inactive: -15.5%,
CCc1ccc2[nH]c(=O)c(C(c3nnnn3Cc3ccco3)N3CCC(C)CC3)cc2c1 (centres undefined),34.2%,
CN1CCN(CC(=O)N2c3ccccc3C(C)(c3ccccc3)CC2(C)C)CC1 (centres undefined),48.2%,
COc1ccc(-c2csc(NCc3ccco3)n2)cc1C,,active: 31.6 µM
COCC(=O)N1CCCc2ccccc21,45.2%,
CCn1c2ccccc2c2cc(C3C(C#N)=C(N)Oc4n[nH]c(COC)c43)ccc21 (centres undefined),-92.8%,
c1csc(CNc2ncnc3ccc(-c4ccc5c(c4)OCO5)cc23)c1,22.4%,
COCC(=O)Nc1nc(-c2ccc(C)cc2)c(C)s1,31.6%,
CCCCCCCCNC(=O)CCNC(=O)c1ccc(C(C)(C)C)cc1,inactive: -33.9%,
Clc1ccc(-c2nc3nc4ccccc4nc3n2Cc2ccco2)cc1,,active: 17.8 µM
COc1ccc(S(=O)(=O)N(CCc2ccccc2)CC(=O)NC(C)C)cc1,34.6%,

SMILES,"activity change, positive = activation",Potency
COc1ccc(N2CCN(C(=O)C3CCCN(C(=O)c4cc5sccc5n4C)C3)CC2)cc1 (centres undefined),inactive: -34.1%,
Cc1cc(C)n2nc(N)c(N=Nc3ccc(Cl)cc3)c2n1,inactive: -17.3%,
C/C(=C\C(=O)c1ccc(Br)cc1)Nc1ccc(Cl)cc1,132%,
O=C(c1cc(C(F)(F)F)cc(C(F)(F)F)c1)N1CCC2(CC1)CCN(c1ccccn1)CC2,inactive: -45%,
Cc1cccc(NC(=O)COc2ccccc2C)n1,33.1%,
Cc1cccc(N2CCN(C(=O)C3CCCN(S(=O)(=O)c4ccc(Br)s4)C3)CC2)c1C (centres undefined),inactive: -56%,
COc1ccc(CNc2nc3ccccc3n2Cc2ccc(C)cc2)cc1OC,-69.9%,
Cc1ccc2nc(CSc3nc(C)cc(C)c3C#N)[nH]c2c1,,active: 4.47 µM
CCOc1ccc(C)cc1S(=O)(=O)n1ccc(C)n1,39.6%,
CSc1nnc(-c2cc3c(s2)-c2ccccc2CC3)o1,,active: 17.8 µM
Cc1cc(C)nc(N(C#N)CC(=O)c2ccccc2)n1,41.2%,
Cc1ccc2c(c1)c(=O)c1ccccc1n2CCCC(=O)Nc1ccc(C)c(F)c1,inactive: -61.3%,
CC(=Nc1ccc(C)cc1)c1sc2ccccc2c1O,,active: 0.631 µM
CCCCOc1ccc(C2(C(=O)O)CCCC2)cc1,38.4%,
CC(=O)c1c(C)[nH]c(C(=O)OCCCCN2C(=O)c3ccccc3C2=O)c1C,inactive: -48.4%,
CCCN1C=CC(=C/C=C(\C#N)C(=O)OCC)C=C1,,active: 14.1 µM
COC(=O)c1cc(COC(=O)c2ccc(OC)c(S(=O)(=O)N3CCCC3)c2)oc1C,26%,
CCCNC(=O)NC(=O)COC(=O)CC(NC(N)=O)c1ccc(Cl)cc1 (centres undefined),-31.1%,
Cc1c(NC(=O)C2CC=CCC2C(=O)O)c(=O)n(-c2ccccc2)n1C (centres undefined),22.8%,
S=C(NCCc1ccccc1)Nc1ccccn1,64.2%,
COc1ccc(C(=O)N2CCN(c3nc4cc(C)ccc4cc3C#N)CC2)c(OC)c1,inactive: -38.7%,
Cc1cc(NC(=O)CSc2nc3ccsc3c(=O)n2CCCC(=O)NCCc2ccccc2)no1,-20.9%,

SMILES,"activity change, positive = activation",Potency
Cc1ccc(C(=O)Nc2ccc3c(c2)nc2n3CCSC2)cc1,80.3%,
Cc1cccc(CSc2nc3c(sc4ccccc43)c(=O)n2CCC(=O)NC(C)C)c1,56.4%,
CCN(CC)c1ccc(C2C3CCCCC3(O)CCN2CC(=O)N2CCCCC2)cc1 (centres undefined),36.7%,
O=S(=O)(c1cccc(S(=O)(=O)N2CCCC2)c1)c1cccc(S(=O)(=O)N2CCCC2)c1,inactive: -33.2%,
COc1ccc(NC(=O)c2ccc([N+](=O)[O-])s2)c([N+](=O)[O-])c1,53.9%,
O=C1c2ccccc2NC(c2ccc([N+](=O)[O-])cc2)N1O (centres undefined),inactive: -68.1%,
CCOC(=O)c1[nH]c2ccc(OC)cc2c1NC(=O)CN1CCC2(CC1)OCCO2,41.6%,
CC(C)(C)c1csc(NNC(=O)c2ccc(Br)cc2)n1,inactive: -61.5%,
CC1CCC/C(=N\NC(=O)COc2ccccc2Cl)C1 (centres undefined),-13.3%,
Cc1[nH]n2c(=O)c3c(nc2c1-c1ccc(Cl)cc1)CCC3,-56.7%,
Cc1csc2ncc(C(=O)Nc3ccccc3F)c(=O)n12,,active: 12.6 µM
CC(/C=N/NC(=O)c1nn(C)c(C)c1Br)=C\c1ccccc1,142%,
Cc1cccc(CSC2=NN3CCCC(=O)N=C3S2)c1,42.6%,
O=C(Nc1ccc(Sc2ccc(Br)cc2)cc1)c1ccco1,-34%,
CCOC(=O)CNC(=O)c1ccc(OCC(F)(F)F)cc1,,active: 12.6 µM
COCc1nnc(N)s1,34.1%,
Cc1ccc(-c2nn(-c3ccccc3)cc2CN(Cc2ccccc2)C(=O)c2ccco2)o1,inactive: -35.8%,
O=C(Nc1ccc(F)cc1)N1CCN2C(=O)c3ccccc3C12c1ccccc1 (centres undefined),30.6%,
CN1c2ccsc2C(O)=C(C(=S)Nc2ccc(F)c(Cl)c2)S1(=O)=O,inactive: -43.3%,
CC(/C=C/c1ccc(OCc2ccccc2)cc1)=N\O,,active: 11.2 µM
Cc1cccc2cc(CN(Cc3ccco3)C(=O)NC3CCCCC3)c(=O)[nH]c12,inactive: -30.4%,
O=C(CN(c1ccc(F)cc1)S(=O)(=O)c1ccc2c(c1)OCCO2)NCc1ccccn1,35.3%,

SMILES,"activity change, positive = activation",Potency
Cc1cc(C)c2oc(C(=O)Nc3c(C(=O)c4ccc(F)cc4)oc4ccccc34)cc(=O)c2c1,49.5%,
Cc1ccc(S(=O)(=O)NC(=O)COc2ccccc2C(N)=O)cc1,47.7%,
O=C(NCC1COc2ccccc2O1)c1ccc(Cl)cc1 (centres undefined),,active: 14.1 µM
Cc1cc(NC(=O)COC(=O)c2oc3c(ccc4ccccc43)c2C)no1,31.4%,
NC(=O)Cc1nc(-c2ccc([N+](=O)[O-])cc2)cs1,inactive: -31.9%,
Cc1nnc(SCCN2C(=O)c3ccccc3C2=O)[nH]c1=O,38.5%,
COc1ccc2cc3c(N)nn(C(=O)C4CCC(C(C)(C)C)CC4)c3nc2c1 (centres undefined),inactive: -37.4%,
CN(C(=S)NCCN1CCOCC1)C(c1ccccc1)c1ccccc1,inactive: -31.5%,
CCSc1nnc(NC(=O)c2ccc(C)cc2)s1,,active: 14.1 µM
O=C(COC(=O)/C=C/c1cccs1)NC1CC1,37%,
CCOc1ccc(C(=O)CCc2nc3ccccc3s2)cc1,-31.7%,
Clc1ccc(-c2ccnc(Oc3cc(Cl)ccc3Cl)n2)cc1,-33.5%,
CC(C)(C)c1nc2scc(-c3cccs3)c2c(=O)o1,43%,
O=C1CC(/C=C/c2ccc(Cl)cc2)=Nc2ccccc2N1,93.1%,
CC(C)Oc1ccc(C2c3c(oc4ccccc4c3=O)C(=O)N2CCCN2CCOCC2)cc1 (centres undefined),35.9%,
O=C(O)c1ccc(/C=N/NC(=O)c2cc(-c3cccs3)nc3ccccc23)cc1,inactive: 4.02%,
CC(CN1CCOCC1)OC(=O)c1ccccc1Br (centres undefined),-3.63%,
Fc1ccc(Nc2ccnc(Nc3ccc(F)cc3)n2)cc1,75.4%,
Cn1c(CN2CCCCC2)nc2cc(NC(=O)c3cccc(Br)c3)ccc21,,inactive
CC(C)(C)c1csc(NC(=O)c2cccs2)n1,47.8%,
Cc1cccc(C)c1OCC(O)CN1CCC(CN2C(=O)c3cccc4cccc(c34)C2=O)CC1 (centres undefined),-70.9%,
COc1ccc(O)c(C(=O)CC(=O)c2ccccc2)c1,,active: 1.78 µM

# Compounds above that contain a COOH group (3):
SMILES,"activity change, positive = activation",Potency
CCCCOc1ccc(C2(C(=O)O)CCCC2)cc1,38.4%,
Cc1c(NC(=O)C2CC=CCC2C(=O)O)c(=O)n(-c2ccccc2)n1C (centres undefined),22.8%,
O=C(O)c1ccc(/C=N/NC(=O)c2cc(-c3cccs3)nc3ccccc23)cc1,inactive: 4.02%,

# By substructure, the entries above containing a CF3 group
SMILES,"activity change, positive = activation",Potency
O=C(c1cc(C(F)(F)F)cc(C(F)(F)F)c1)N1CCC2(CC1)CCN(c1ccccn1)CC2,inactive: -45%,
CCOC(=O)CNC(=O)c1ccc(OCC(F)(F)F)cc1,,active: 12.6 µM

# The list continues.

SMILES,"activity change, positive = activation",Potency
O=C(Nc1ccc(N2CCOCC2)cc1)Nc1cnsn1,,active: 12.6 µM
COC(=O)c1c(C)[nH]c(C(=O)CSc2ccc(Cl)cc2)c1C,,active: 11.2 µM
O=c1c2cc(-c3ccccc3)sc2nc2n1CCC2,,active: 3.16 µM
CN(C)S(=O)(=O)c1cccc(C(=O)NCC2CCCO2)c1 (centres undefined),58.8%,
Cc1c(CCO)c(=O)n(-c2ccccc2)n1S(=O)(=O)c1ccc([N+](=O)[O-])cc1,32.1%,
O=C(/C=C/c1ccccc1)Nc1scc(-c2ccccc2)c1C(=O)O,,active: 11.2 µM
COc1ccccc1-c1ccc(SCc2cccc(C)c2)nn1,inactive: -58.3%,
Cc1cc(N/N=C/c2ccncc2)nc2ccccc12,,active: 14.1 µM
CC(C)n1cnc2c(NCc3ccccc3)nc(NCCO)nc21,35.4%,
OC(COCc1ccc(Cl)cc1)CN1CCN(CC(O)COCc2ccc(Cl)cc2)CC1 (centres undefined),inactive: -50.6%,
Nc1cc(=O)nc(SCc2ccccc2)n1Cc1ccco1,25.9%,
Cc1ccc(-c2cn(-c3cccc(Cl)c3)c(S(=O)(=O)CC(=O)Nc3ccccc3F)n2)cc1,,active: 12.6 µM
CC(C)C(=O)Nc1ccc(NC(=O)c2ccccc2Cl)nc1,29.3%,
CCOC(=O)N1CCN(c2cc(=O)n(-c3ccc(OCC)cc3)c(=O)[nH]2)CC1,32.1%,
COc1cc2c(cc1OC)CN(c1nc(CN3CCCCC3)nc3sc4c(c13)CCCC4)CC2,inactive: -23.1%,
S=C(NCc1cccs1)Nc1ccccc1,13.7%,
CCC(C)NC(=O)c1ccccc1C(=O)NC(C)CC (centres undefined),45.3%,
CC1Cn2c(nc(=O)c3c2NCN(CCc2ccccc2)C3)S1 (centres undefined),33.6%,
O=C(c1cccs1)c1no[n+]([O-])c1C(=O)c1cccs1,-73.4%,
CCSc1nnc(NC(=O)c2cccnc2Cl)s1,,active: 17.8 µM
COC(=O)c1cc2c(cc1[N+](=O)[O-])OCO2,30.8%,
